Results reported in patent US12708620B2, “Prodrugs and medical uses thereof” (priority 2018, dated 2026).
The name of at least one read-out is uncertain.

Test system: panel of breast cancer, lung cancer, and pancreatic cancer cell lines
Assay: in vitro ATP-based potency assay (CellTiter-Glo 2.0), normoxic vs anoxic
Format: cell-based, human
Details: 4 hour drug exposure, normoxic (NRX) or anoxic (ANX)

With `CCN1CCN(C(=O)c2cc(N(CCBr)CCOS(C)(=O)=O)c(S(C)(=O)=O)cc2[N+](=O)[O-])CC1.CS(=O)(=O)O` [Cpd.11 Ms, 4-(5-((2-bromoethyl) (2-((methylsulfonyl)oxy)ethyl)amino)-4-(methylsulfonyl)-2-nitrobenzoyl)-1-ethylpiperazin-1-ium methanesulfonate] the “cytotoxicity, IC50 and HCR (FIG. 3A)” value was “anoxia-specific cytotoxicity”.
